# Experimental data reported in PubChem BioAssay AID2685 (National Center for Advancing Translational Sciences (NCATS), 2010).
# This is one part of the list. These are further read-outs of the screen, such as a control signal, another cell line or another target. No call is given for them. Most of these compounds were active or inconclusive in the main read-out, so they are no random draw. The note in brackets gives the kind of curve behind each potency; many fits are weak.
# Assay: qHTS Assay for Lipid Storage Modulators in Drosophila S3 Cells;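 as to cell number change: cells counted by Cell Tracker Red CMTPX staining in the red channel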
# Settings: BODIPY lipid droplet fluorescence, 18-24 h; for cell number change: measured here: cell count max response, cells fed with added oleic acid
# How it was run: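 Laser-scanning cytometry quantifies lipid droplet accumulation (500–530 nm total intensity; droplet/cell object ratio) in oleic acid-fed (400 uM added) Drosophila S3 cells treated with a concentration series. 20 uM Triacsin C defined 100% inhibition.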
# [1] = measured here: cell number channel AC50, cells fed with added oleic acid
# [2] = measured here: lipid fluorescence (Fed channel) AC50, cells fed with added oleic acid
SMILES,cell number change [%],AC50 [1],AC50 [2]
COc1cccc(NC(=O)N2CCCCCC2)c1,-20.3,,
O=C(NC(c1ccccc1)c1c(O)ccc2ccccc12)c1ccccc1Cl (stereo not given),-33.6,"23.1 µM [falling, single point]","29.1 µM [falling, single point]"
Cc1cccc(NC(=O)c2snc3c(=O)[nH]cnc23)c1,1.54,,"0.731 µM [falling, single point]"
COc1cc(CO)cc(Br)c1OCC(=O)N1CCCCC1,-11.6,,"20.6 µM [falling, partial curve, poor fit]"
O=C(CCNC(=O)c1ccc([N+](=O)[O-])cc1)Nc1cccc(S(=O)(=O)N2CCCCCC2)c1,16.5,,
Cc1cc(C(=O)NCCCN(C)C)c2ccccc2n1,28,,
Cc1ccc2c(c1)cc(CN(Cc1ccc3c(c1)OCO3)S(=O)(=O)c1ccccc1)c1nnnn12,-19.7,,"0.82 µM [rising, full curve, poor fit]"
CC(C)CN1C(=O)C(=O)N(CC(=O)N(C)CC(=O)Nc2ccc(F)cc2)C1=O,-20.9,,"29.1 µM [falling, single point]"
Cc1nc(SC(C)C(=O)Nc2c(C)n(C)n(-c3ccccc3)c2=O)nc(C)c1C (stereo not given),15,,"29.1 µM [rising, single point]"
Nn1c(SC/C=C/c2ccccc2)nnc1-c1ccccn1,,"0.731 µM [rising, partial curve]","3.26 µM [rising, partial curve]"
COc1ccc(/C=C2/SC(=S)NC2=O)cc1OCc1ccccc1,-31.9,"8.2 µM [falling, partial curve]","29.1 µM [falling, single point]"
CN(C)CCNC(=O)c1cc2ccccc2oc1=O,-9.1,,"23.1 µM [falling, single point]"
COc1ccc(C(=O)NC2CCCCCC2)cc1S(=O)(=O)N1CCCC1,19.7,,
O=C(CSc1nc2[nH]c(=O)cc(O)c2s1)NCCc1ccccc1,-4.48,,"1.46 µM [rising, partial curve]"
NC(=O)c1cc[n+](CC(=O)NC(=O)Nc2ccccc2)cc1,-26.1,,"29.1 µM [falling, single point]"
COc1ccccc1Nc1nc(-c2ccc3c(c2)NC(=O)CO3)cs1,,"6.51 µM [rising, single point]","6.51 µM [rising, single point]"
Cc1ccc(NC(=S)N(C)Cc2cn(C)c3ccccc23)cc1,-34.2,"29.1 µM [falling, single point]",
Cc1cccc(OCC2CCCN(Cc3nc(C4CC4)no3)C2)c1 (stereo not given),-12.6,,"6.51 µM [falling, single point]"
Cc1ccc(-c2nnc(/C=C/c3ccccc3)o2)cc1,5.24,"6.51 µM [rising, single point]","0.146 µM [rising, full curve, poor fit]"

SMILES,cell number change [%],AC50 [1],AC50 [2]
CCN(CC(=O)NCCC1=CCCCC1)S(=O)(=O)c1ccccc1,11,,
CC1CCN(C(=S)c2cn(Cc3cccc(F)c3)c3ccccc23)CC1,18.6,,"0.116 µM [falling, full curve, poor fit]"
CN(C)c1ccc(CNC2C3CC4CC(C3)CC2C4)cc1 (stereo not given),22.3,,"0.731 µM [rising, full curve, poor fit]"
COCCCOc1ccnc(CS(=O)c2nc3ccccc3[nH]2)c1C (stereo not given),-18.5,,"0.517 µM [falling, full curve, poor fit]"
O=C(/C=C/c1ccc(Cl)cc1)N1CCN(c2ccccn2)CC1,36,"9.2 µM [rising, partial curve]","1.84 µM [rising, partial curve]"
CCCC(=O)Oc1ccc(N(C(=O)CCC)S(=O)(=O)c2cccc([N+](=O)[O-])c2)cc1,-41.4,"20.6 µM [falling, single point]",
O=C1CN(S(=O)(=O)c2cc(Cl)ccc2Cl)c2ccccc2N1,6.94,,
CCOC(=O)c1c(C)c(C(=O)NC2CCCCCC2)c(C)n1C,-0.323,,"1.16 µM [rising, single point]"
Cc1cc2n(n1)C(c1ccc3c(c1)OCO3)Nc1c(C)cccc1-2 (stereo not given),-18.4,,"0.146 µM [rising, full curve]"
Cc1ccc(N(CCO)C(=S)Nc2ccccc2)cc1,31.1,"0.82 µM [rising, full curve, poor fit]","29.1 µM [rising, partial curve]"
CC1=C(C(=O)OCC(C)C)C(c2cccc(F)c2)N2C(=O)C(C)SC2=N1 (stereo not given),108,"29.1 µM [rising, partial curve, poor fit]","29.1 µM [rising, single point]"
COc1ccc(-n2c(-c3cc(-c4ccccc4)sc3N)n[nH]c2=S)cc1,25,,"29.1 µM [rising, single point]"
CC(Oc1ccc(Br)cc1)C(=O)Nc1nnc(C2CC2)s1 (stereo not given),38,"20.6 µM [rising, single point]","29.1 µM [rising, single point]"
Cc1c(C(=O)N2CCN(c3ccccc3)CC2)sc2ncnc(N3CCN(c4ccccn4)CC3)c12,-11.1,,"6.51 µM [rising, single point]"
Cc1ccc(C)c(S(=O)(=O)N2CCCOC2CNC(=O)C(=O)NCc2ccc3c(c2)OCO3)c1 (stereo not given),26.7,,"23.1 µM [rising, partial curve, poor fit]"
COc1ccc(C(C(=O)NC(C)(C)C)N(C(=O)CCC(=O)Nc2cc(C)on2)c2cccc(C)c2C)cc1 (stereo not given),32.5,,
COc1ccc(C(C(=O)NC2CCCCC2)N(C(=O)Cc2c[nH]c3ccccc23)c2ccccc2)cc1OC (stereo not given),7.12,,"16.4 µM [falling, partial curve, poor fit]"
CC1CCCC(C)N1C(=O)CN1C(=O)C(C)(C)Oc2ccc(C(=O)NC3CCCCC3)cc21 (stereo not given),-50.9,"1.03 µM [falling, full curve]","3.66 µM [falling, full curve]"

# Limited to AC50 [2] and cell number change [%], for two of the compounds above:
SMILES	AC50 [2]	cell number change [%]
CCCC(=O)Oc1ccc(N(C(=O)CCC)S(=O)(=O)c2cccc([N+](=O)[O-])c2)cc1		-41.4
O=C1CN(S(=O)(=O)c2cc(Cl)ccc2Cl)c2ccccc2N1		6.94
